Measurements reported in PubChem BioAssay AID504764 (Drosophila RNAi Screening Center, 2011).
Screen: 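Genes whose knock-down alters Notch-dependent transcription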 (primary screen). System: Drosophila Kc167 cells. Reagent: long dsRNA against Drosophila genes. Duration: about 5 days (4 days dsRNA, then 24 h after transfection). Challenge: transfection of constitutively active membrane-tethered Notch lacking the extracellular domain, read 24 h later. Measurement: 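Firefly luciferase from an E(spl)m3 reporter with active Notch, plus control-promoter and uninduced reporter wells for normalisation; unnormalised counts, duplicate wells a and b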. Direction: induced reporter light, run 1, well a and induced reporter light, run 1, well b: higher = more light from the Notch target reporter with active Notch; control promoter light, run 1, well a and control promoter light, run 1, well b: higher = more light from the viral control promoter (cell number, transfection, viability); uninduced reporter light, run 1, well a: higher = more light from the Notch target reporter without active Notch. Hit rule: 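Hit if the duplicate-averaged log2 ratio of induced to control-promoter light gives a plate-wise z beyond ±2, or induced to uninduced beyond ±1.8; weak-control or discordant-duplicate wells dropped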. Calls: active = modifier hit (raised or lowered Notch signal); inactive = not a hit.
The deposit covers about 22,000 reagents; below is a random part of those with a known target gene and a result. Over the whole deposit, 403 (1.9%) are marked active. 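Unnormalised raw counts per well; ratio z-scores behind the hit calls and whether each hit raises or lowers signal are not deposited.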 Names joined by + are all predicted targets of the reagent. Reagent sequences are not shown. Not given: the amount of reagent.

predicted target | DRSC id | induced reporter light, run 1, well a | induced reporter light, run 1, well b | control promoter light, run 1, well a | control promoter light, run 1, well b | uninduced reporter light, run 1, well a | Call
poe | DRSC03593 | 1.37e5 | 1.08e5 | 1.06e5 | 91225 | 10245 | inactive
CG34423 + Mthfs | DRSC04088 | 2.09e5 | 1.87e5 | 1.73e5 | 1.62e5 | 15060 | inactive
cyr | DRSC18017 | 1.35e5 | 1.35e5 | 1.83e5 | 1.96e5 | 8575 | inactive
cyr | DRSC18018 | 1.75e5 | 1.64e5 | 3.15e5 | 2.50e5 | 11810 | inactive
cyr | DRSC18021 | 1.32e5 | 1.39e5 | 2.33e5 | 2.35e5 | 9970 | inactive
CG7432 | DRSC16243 | 2.12e5 | 1.92e5 | 2.60e5 | 2.30e5 | 17920 | inactive
CG18265 | DRSC10310 | 87010 | 86530 | 1.30e5 | 1.15e5 | 2530 | inactive
GluRIID | DRSC16723 | 2.03e5 | 1.59e5 | 1.97e5 | 1.87e5 | 15160 | inactive
mwh | DRSC08382 | 1.88e5 | 1.66e5 | 2.06e5 | 1.95e5 | 9795 | inactive
Sfmbt | DRSC02552 | 2.26e5 | 2.24e5 | 1.63e5 | 2.02e5 | 15175 | inactive
Naa60 | DRSC10301 | 1.28e5 | 1.21e5 | 1.63e5 | 1.50e5 | 9210 | inactive
CG18545 | DRSC15343 | 81450 | 88895 | 75735 | 64785 | 5680 | inactive
sn | DRSC18834 | 1.48e5 | 1.65e5 | 2.50e5 | 2.26e5 | 10795 | inactive
CG15614 | DRSC06567 | 1.62e5 | 1.21e5 | 1.35e5 | 1.39e5 | 8510 | inactive
CG3829 | DRSC04423 | 2.62e5 | 2.70e5 | 2.11e5 | 2.32e5 | 18640 | inactive
Not1 | DRSC06787 | 61285 | 71715 | 1.02e5 | 1.10e5 | 6270 | active
Not1 | DRSC06794 | 49670 | 45910 | 60460 | 64545 | 4770 | inactive
Pkg21D | DRSC00772 | 2.19e5 | 2.20e5 | 1.88e5 | 2.10e5 | 14925 | inactive
mthl9 | DRSC08506 | 88425 | 1.41e5 | 2.00e5 | 1.29e5 | 7755 | inactive

Records listed above called active:
predicted target | DRSC id | induced reporter light, run 1, well a | induced reporter light, run 1, well b | control promoter light, run 1, well a | control promoter light, run 1, well b | uninduced reporter light, run 1, well a | Call
Not1 | DRSC06787 | 61285 | 71715 | 1.02e5 | 1.10e5 | 6270 | active

Further results:
predicted target | DRSC id | induced reporter light, run 1, well a | induced reporter light, run 1, well b | control promoter light, run 1, well a | control promoter light, run 1, well b | uninduced reporter light, run 1, well a | Call
CG4613 | DRSC10435 | 1.96e5 | 1.31e5 | 2.46e5 | 2.33e5 | 9175 | inactive
CG30385 | DRSC06031 | 2.50e5 | 2.20e5 | 2.66e5 | 2.70e5 | 22210 | inactive
CG14740 | DRSC14960 | 1.04e5 | 1.28e5 | 85805 | 80300 | 9165 | inactive
Smurf | DRSC07641 | 1.23e5 | 91520 | 95065 | 1.07e5 | 8375 | inactive
Abp1 | DRSC09693 | 50585 | 50670 | 61870 | 58010 | 6515 | active
Gfat2 | DRSC14598 | 1.62e5 | 1.51e5 | 2.12e5 | 2.09e5 | 13000 | inactive
CG7332 | DRSC20038 | 1.30e5 | 1.01e5 | 91845 | 65675 | 9210 | inactive
ATP6 (retired record) | DRSC21278 | 86400 | 1.11e5 | 1.17e5 | 1.19e5 | 11028 | inactive
Hdc | DRSC07439 | 1.98e5 | 2.36e5 | 1.92e5 | 1.77e5 | 16465 | inactive
CG6497 | DRSC10654 | 2.50e5 | 2.78e5 | 3.26e5 | 2.65e5 | 12238 | inactive
CG6497 | DRSC21469 | – | – | – | – | – | inactive
CG31806 | DRSC02787 | 95705 | 1.01e5 | 1.22e5 | 1.30e5 | 8455 | inactive
bves | DRSC20520 | 94735 | 95870 | 1.25e5 | 1.16e5 | 10435 | inactive
bves | DRSC20554 | 75890 | 75640 | 77555 | 90835 | 10520 | inactive
bves | DRSC20555 | 78960 | 83010 | 97895 | 1.05e5 | 9320 | inactive
Tsf3 | DRSC06849 | 1.11e5 | 1.19e5 | 2.28e5 | 2.41e5 | 11160 | inactive
Rbp6 | DRSC09462 | 2.23e5 | 2.45e5 | 3.10e5 | 2.71e5 | 23605 | inactive
Rbp6 | DRSC09464 | 2.26e5 | 2.12e5 | 2.46e5 | 2.54e5 | 20950 | inactive
Rbp6 | DRSC10072 | 2.03e5 | 1.82e5 | 2.76e5 | 2.14e5 | 11615 | inactive
Rbp6 | DRSC10073 | 2.21e5 | 1.87e5 | 2.49e5 | 2.40e5 | 11375 | inactive
Rbp6 | DRSC10662 | 1.29e5 | 1.34e5 | 2.19e5 | 1.93e5 | 7570 | inactive
norpA | DRSC18806 | 1.31e5 | 1.48e5 | 1.86e5 | 1.87e5 | 8490 | inactive
TwdlT | DRSC16677 | 1.29e5 | 1.46e5 | 2.68e5 | 1.86e5 | 12435 | inactive
TwdlT | DRSC21540 | – | – | – | – | – | inactive
robl | DRSC07674 | 1.29e5 | 1.39e5 | 1.79e5 | 1.19e5 | 11075 | inactive
CG16972 | DRSC02550 | 2.98e5 | 2.75e5 | 2.92e5 | 2.33e5 | 20538 | inactive
Vps15 | DRSC16553 | 1.01e5 | 1.07e5 | 77510 | 70820 | 9130 | inactive
Dpm1 | DRSC02018 | 43390 | 22965 | 25580 | 25285 | 1610 | inactive
CG12617 | DRSC02176 | 41485 | 32960 | 40940 | 49480 | 2130 | inactive
Pex7 | DRSC10651 | 2.22e5 | 1.67e5 | 2.13e5 | 2.22e5 | 10665 | inactive
CG32196 | DRSC09548 | 1.77e5 | 1.96e5 | 2.77e5 | 2.67e5 | 19115 | inactive
